# Results as given in doi:10.1101/2025.10.29.685130.
# By UniProt entry, the sequences of proteins in these tests, tags left out. Residues count along the entry.
# UniProt P61164: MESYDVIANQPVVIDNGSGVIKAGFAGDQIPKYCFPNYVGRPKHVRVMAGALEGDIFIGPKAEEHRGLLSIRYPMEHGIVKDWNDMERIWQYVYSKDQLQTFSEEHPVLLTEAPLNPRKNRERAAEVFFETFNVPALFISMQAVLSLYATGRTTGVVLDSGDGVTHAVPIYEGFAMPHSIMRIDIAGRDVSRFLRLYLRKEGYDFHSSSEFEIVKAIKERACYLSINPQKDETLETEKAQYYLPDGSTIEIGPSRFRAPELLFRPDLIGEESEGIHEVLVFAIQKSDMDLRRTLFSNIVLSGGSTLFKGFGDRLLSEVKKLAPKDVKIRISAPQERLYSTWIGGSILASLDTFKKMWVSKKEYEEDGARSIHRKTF
# UniProt P10637: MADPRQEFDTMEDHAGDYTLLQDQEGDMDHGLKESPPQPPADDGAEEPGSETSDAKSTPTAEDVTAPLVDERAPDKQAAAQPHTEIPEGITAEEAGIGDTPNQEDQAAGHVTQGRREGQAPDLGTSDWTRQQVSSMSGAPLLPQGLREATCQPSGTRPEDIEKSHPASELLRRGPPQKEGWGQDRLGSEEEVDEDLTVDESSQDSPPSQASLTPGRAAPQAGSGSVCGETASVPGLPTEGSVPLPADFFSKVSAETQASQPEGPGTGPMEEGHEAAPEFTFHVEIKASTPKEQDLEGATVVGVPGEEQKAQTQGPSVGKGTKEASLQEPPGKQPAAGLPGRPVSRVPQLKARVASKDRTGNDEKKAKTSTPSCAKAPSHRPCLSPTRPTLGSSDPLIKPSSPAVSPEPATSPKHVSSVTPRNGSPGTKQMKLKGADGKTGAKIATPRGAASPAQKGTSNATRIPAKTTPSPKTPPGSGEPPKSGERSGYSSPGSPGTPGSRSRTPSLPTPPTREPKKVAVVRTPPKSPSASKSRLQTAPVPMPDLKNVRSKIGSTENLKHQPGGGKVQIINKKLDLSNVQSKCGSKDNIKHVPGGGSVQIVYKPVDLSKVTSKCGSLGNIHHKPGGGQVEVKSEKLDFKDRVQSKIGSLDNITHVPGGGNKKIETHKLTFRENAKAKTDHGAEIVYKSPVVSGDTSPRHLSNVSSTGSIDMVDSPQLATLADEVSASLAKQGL
# UniProt P27773, residues 25-505: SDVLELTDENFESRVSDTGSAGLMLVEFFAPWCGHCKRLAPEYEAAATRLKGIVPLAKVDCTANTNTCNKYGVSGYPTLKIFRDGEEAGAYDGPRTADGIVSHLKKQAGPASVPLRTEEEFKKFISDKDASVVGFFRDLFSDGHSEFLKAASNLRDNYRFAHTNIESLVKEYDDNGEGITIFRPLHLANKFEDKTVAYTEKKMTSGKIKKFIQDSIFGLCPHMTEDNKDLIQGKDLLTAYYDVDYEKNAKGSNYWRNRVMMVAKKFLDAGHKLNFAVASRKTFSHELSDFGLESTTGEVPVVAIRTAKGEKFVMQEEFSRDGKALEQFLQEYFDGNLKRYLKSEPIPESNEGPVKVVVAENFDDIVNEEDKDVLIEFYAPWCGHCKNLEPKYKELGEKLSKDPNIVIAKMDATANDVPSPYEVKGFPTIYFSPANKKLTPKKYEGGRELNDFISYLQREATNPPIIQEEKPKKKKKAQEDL
# UniProt Q80U72: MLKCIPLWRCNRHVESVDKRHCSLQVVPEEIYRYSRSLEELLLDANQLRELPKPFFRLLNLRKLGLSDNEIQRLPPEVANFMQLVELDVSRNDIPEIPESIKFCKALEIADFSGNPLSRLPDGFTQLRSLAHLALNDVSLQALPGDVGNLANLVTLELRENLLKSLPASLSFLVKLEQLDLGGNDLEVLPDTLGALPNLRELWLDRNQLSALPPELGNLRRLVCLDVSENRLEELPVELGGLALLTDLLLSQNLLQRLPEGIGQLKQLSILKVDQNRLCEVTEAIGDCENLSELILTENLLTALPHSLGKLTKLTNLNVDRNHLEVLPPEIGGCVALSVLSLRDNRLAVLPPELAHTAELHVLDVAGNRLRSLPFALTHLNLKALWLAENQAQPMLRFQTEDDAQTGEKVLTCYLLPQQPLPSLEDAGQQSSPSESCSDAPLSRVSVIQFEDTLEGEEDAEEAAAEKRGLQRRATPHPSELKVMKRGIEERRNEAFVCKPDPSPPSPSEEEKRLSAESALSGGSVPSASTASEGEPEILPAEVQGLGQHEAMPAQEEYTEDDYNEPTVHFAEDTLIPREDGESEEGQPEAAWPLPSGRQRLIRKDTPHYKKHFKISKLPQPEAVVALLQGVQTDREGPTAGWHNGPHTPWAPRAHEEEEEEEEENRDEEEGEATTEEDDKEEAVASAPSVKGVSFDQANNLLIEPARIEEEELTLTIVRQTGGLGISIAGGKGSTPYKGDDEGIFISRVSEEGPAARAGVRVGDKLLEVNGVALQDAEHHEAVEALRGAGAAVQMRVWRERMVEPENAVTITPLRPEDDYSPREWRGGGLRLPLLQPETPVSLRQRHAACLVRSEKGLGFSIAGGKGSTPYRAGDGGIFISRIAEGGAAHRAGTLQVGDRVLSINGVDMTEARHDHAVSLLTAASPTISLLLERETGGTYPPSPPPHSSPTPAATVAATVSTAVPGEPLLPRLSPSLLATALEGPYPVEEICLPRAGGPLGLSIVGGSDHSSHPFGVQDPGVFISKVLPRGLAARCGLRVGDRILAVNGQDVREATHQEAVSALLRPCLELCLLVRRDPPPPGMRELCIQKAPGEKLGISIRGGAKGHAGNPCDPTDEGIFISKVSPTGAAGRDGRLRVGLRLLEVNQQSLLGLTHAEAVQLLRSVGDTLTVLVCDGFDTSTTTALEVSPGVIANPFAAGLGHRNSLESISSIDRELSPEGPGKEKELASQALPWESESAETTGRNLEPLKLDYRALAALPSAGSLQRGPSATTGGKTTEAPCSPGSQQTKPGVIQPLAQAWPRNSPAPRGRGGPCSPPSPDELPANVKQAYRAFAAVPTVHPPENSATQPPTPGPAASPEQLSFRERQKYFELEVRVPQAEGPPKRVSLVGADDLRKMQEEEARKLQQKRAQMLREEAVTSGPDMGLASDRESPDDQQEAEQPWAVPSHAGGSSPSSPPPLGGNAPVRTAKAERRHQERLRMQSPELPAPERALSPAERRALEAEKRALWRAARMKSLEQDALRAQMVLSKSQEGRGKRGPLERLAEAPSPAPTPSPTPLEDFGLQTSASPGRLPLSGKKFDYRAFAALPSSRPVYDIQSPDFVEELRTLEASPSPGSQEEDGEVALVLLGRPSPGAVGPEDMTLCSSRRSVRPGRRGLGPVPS
# UniProt P16388: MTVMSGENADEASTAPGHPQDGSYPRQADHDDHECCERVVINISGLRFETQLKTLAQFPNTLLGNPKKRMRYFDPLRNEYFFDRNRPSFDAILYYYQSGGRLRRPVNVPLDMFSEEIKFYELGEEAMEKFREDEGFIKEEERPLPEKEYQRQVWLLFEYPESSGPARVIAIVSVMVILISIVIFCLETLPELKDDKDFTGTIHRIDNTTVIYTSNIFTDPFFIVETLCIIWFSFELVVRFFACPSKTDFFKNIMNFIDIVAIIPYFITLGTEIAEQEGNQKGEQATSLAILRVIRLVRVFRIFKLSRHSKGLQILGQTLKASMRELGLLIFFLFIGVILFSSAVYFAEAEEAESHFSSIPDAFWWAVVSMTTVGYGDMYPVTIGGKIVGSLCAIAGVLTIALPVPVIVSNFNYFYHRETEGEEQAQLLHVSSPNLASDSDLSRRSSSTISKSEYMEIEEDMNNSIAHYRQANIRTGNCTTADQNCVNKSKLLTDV
# UniProt P14873: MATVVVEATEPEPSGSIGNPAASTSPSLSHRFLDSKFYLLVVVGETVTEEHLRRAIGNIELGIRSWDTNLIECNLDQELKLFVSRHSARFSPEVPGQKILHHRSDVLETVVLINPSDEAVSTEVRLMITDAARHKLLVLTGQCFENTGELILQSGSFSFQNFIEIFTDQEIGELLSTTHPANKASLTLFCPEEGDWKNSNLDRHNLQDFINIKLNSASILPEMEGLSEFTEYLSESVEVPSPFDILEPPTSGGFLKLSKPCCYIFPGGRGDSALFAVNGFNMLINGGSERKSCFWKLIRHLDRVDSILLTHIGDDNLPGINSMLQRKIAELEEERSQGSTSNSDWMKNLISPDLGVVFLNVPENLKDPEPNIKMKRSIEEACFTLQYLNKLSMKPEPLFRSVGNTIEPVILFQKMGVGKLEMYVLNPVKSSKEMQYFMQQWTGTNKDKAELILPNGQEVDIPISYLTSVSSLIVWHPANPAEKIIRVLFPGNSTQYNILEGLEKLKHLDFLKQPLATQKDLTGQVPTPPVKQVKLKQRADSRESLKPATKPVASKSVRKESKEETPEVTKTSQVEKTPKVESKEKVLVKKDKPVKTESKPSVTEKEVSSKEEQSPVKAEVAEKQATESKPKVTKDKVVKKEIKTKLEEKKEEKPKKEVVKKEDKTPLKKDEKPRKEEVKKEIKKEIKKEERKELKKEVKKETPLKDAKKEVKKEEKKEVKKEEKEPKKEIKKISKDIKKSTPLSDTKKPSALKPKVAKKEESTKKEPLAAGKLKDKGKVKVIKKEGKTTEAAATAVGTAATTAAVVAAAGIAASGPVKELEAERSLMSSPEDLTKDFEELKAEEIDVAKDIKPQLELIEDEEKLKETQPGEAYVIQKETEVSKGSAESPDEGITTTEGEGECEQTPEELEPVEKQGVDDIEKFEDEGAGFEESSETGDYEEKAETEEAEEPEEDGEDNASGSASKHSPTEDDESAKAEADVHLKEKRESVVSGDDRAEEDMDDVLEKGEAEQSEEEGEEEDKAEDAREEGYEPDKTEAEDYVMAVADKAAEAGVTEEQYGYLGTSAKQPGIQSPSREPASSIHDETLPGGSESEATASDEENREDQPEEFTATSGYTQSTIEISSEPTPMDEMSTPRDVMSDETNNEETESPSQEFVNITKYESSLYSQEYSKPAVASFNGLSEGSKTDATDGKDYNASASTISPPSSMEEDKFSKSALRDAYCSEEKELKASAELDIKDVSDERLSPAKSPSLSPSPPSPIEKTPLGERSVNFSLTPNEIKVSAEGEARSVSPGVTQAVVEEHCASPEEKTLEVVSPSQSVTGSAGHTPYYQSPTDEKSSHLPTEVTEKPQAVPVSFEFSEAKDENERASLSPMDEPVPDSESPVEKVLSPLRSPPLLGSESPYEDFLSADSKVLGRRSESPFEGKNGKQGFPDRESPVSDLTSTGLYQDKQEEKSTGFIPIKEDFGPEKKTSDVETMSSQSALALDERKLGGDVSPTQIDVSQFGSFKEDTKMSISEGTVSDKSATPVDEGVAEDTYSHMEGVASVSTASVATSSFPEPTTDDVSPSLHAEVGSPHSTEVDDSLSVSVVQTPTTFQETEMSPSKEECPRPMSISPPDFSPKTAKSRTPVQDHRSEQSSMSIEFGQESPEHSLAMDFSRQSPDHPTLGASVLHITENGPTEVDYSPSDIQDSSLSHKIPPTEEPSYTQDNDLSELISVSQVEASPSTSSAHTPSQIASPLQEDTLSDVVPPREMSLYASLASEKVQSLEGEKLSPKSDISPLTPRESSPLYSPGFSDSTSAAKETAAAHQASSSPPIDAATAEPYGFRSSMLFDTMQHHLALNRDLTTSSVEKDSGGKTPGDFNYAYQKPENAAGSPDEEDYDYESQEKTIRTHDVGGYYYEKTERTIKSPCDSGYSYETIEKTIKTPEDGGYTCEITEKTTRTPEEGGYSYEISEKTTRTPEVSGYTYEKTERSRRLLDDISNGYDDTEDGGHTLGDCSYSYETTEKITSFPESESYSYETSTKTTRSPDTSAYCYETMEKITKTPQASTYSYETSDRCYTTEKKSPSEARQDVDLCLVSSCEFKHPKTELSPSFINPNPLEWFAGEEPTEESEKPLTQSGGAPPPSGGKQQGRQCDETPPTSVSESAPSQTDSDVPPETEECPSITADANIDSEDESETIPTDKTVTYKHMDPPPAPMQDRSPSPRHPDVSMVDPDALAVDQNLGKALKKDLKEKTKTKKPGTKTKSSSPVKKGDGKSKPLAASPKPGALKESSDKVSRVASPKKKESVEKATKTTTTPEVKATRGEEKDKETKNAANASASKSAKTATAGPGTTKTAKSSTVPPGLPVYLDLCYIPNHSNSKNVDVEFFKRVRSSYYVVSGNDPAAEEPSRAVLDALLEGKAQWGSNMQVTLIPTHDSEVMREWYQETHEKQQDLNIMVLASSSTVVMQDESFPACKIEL
# UniProt Q9Z1S5: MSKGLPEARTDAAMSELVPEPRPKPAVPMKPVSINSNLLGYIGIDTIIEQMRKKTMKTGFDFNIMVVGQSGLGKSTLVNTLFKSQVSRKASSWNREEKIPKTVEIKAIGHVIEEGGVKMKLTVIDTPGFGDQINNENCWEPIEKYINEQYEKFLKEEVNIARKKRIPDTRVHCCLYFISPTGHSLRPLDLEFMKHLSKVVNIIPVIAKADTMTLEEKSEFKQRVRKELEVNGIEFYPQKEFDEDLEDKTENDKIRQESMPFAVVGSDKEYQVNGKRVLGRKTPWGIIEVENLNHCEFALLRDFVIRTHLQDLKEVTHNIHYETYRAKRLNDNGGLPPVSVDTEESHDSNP
# T1: phosphoY458 Kv1.2 (mouse), P63141
# T1 chain: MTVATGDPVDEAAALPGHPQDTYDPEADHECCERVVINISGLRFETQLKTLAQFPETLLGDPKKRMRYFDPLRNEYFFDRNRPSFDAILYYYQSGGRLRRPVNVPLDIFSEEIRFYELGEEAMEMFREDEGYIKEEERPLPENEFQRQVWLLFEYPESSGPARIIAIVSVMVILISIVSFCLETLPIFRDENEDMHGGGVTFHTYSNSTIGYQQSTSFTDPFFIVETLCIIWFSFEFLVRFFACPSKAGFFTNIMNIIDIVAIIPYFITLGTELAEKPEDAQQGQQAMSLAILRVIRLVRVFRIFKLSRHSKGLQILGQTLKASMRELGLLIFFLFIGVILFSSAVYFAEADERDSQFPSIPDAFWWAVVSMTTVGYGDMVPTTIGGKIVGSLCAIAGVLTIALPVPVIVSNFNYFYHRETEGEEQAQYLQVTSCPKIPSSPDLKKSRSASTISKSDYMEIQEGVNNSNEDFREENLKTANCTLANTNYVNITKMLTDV
# B1: TAG1 (protein, UniProt Q61330 31-1014)
# chain: QGTPATFGPVFEEQPVGLLFPEESAEDQVTLACRARASPPATYRWKMNGTEMNLEPGSRHQLMGGNLVIMSPTKAQDAGVYQCLASNPVGTVVSKEAVLRFGFLQEFSKEERDPVKTHEGWGVMLPCNPPAHYPGLSYRWLLNEFPNFIPTDGRHFVSQTTGNLYIARTNASDLGNYSCLATSHLDFSTKSVFSKFAQLNLAAEDPRLFAPSIKARFPPETYALVGQQVTLECFAFGNPVPRIKWRKVDGSLSPQWGTAEPTLQIPSVSFEDEGTYECEAENSKGRDTVQGRIIVQAQPEWLKVISDTEADIGSNLRWGCAAAGKPRPMVRWLRNGEPLASQNRVEVLAGDLRFSKLNLEDSGMYQCVAENKHGTIYASAELAVQALAPDFRQNPVRRLIPAARGGEISIPCQPRAAPKATILWSKGTEILGNSTRVTVTLDGTLIIRNISRSDEGKYTCFAENFMGKANSTGILSVRDATKITLAPSSADINVGDNLTLQCHASHDPTMDLTFTWTLDDFPVDFDKPGGHYRRASVKETIGDLTILNAQLRHGGTYTCMAQTVVDGASKEATVLVRGPPGPPGGVVVRDIGDTTVQLSWSRGFDNHSPIAKYTLQARTPPSGKWKQVRTNPVNIEGNAETAQVLGLMPWMDYEFRVSASNILGTGEPSGPSSRIRTKEAVPSVAPSGLSGGGGAPGELTINWTPMSREYQNGDGFGYLLSFRRQGSSSWQTARVPGADTQYFVYSNDSIHPYTPFEVKIRSYNRRGDGPESLTAIVYSAEEEPKVAPAKVWAKGSSSSEMNVSWEPVLQDMNGILLGYEIRYWKAGDKEAAADRVRTAGLDSSARVTGLYPNTKYHVTVRAYNRAGTGPASPSADAMTMKPPPRRPPGNISWTFSSSSLSLKWDPVVPLRNESTVTGYKMLYQNDLQPTPMLHLTSKNWIEIPVPEDIGHALVQIRTTGPGGDGIPAEVHIVRNGGTSMMVES
# B2: Caspr2, Q9CPW0 28-1332 (protein)
# chain: APSTFQKCDEPLISGLPHVSFSSSSSLSSSYAPGYAKINKRGGAGGWSPSDSDHYQWLQVDFGNRKQISAIATQGRYSSSDWVTQYRMLYSDTGRNWKPYHQDGNIWAFPGNINSDSVVRHDLQHAVVARYVRIVPLDWNGEGHIGLRAEVYGCAYWADVINFDGHGVLPYRFRNKKMKTLKDVIALKFKTSESEGVLLHGEGQQGDYITLELKKAKLVLSLNLGSNQLGPIYGHTSVTSGSLLDDHHWHSVLIERQGRSINLTLDRSMQHFRTNGEFDYLDLDYEITFGGIPFSGKPSSSNRKNFKGCMESINYNGVNITDLARRKKLGPSNMGNLSFSCVEPYTVPVFFNATSYLEVPGRLNQDLFSVSFQFRTWNPSGLLLFSHFADNLGNVEIDLVESKVGVHINNTQTKTSQIDISSGSGLNDGQWHEVRFLAKENFAVLTIDGDEASAVRTNSPLQVKTGEKYFFGGFLNHMNNASYSALQPSFQGCMQLIQVDDQLVNLYEVAQRKPGSFANVTIDMCAIIDRCVPNHCEHGGKCSQTWDSFKCTCDETGYSGATCHNSIYEPSCEAYKHLGQTSNYYWIDPDGSGPLGPLKVYCNMTEDKVWTIVSHDLQMQTTVVGYNPEKYSVTQLIYSASMDQISAITSSAEYCEQYVSYFCRMSRLLNTPDGSPYTWWVGKANEKHYYWGGSEPGIQKCACGIERNCTDPKYYCNCDADYKQWRKDAGFLSYKDHLPVSQVVVGDTDRQGSEAKLSVGPLRCQGDRNYWNAASFPNPSSYLHFSTFQGETSADISFYFKTLIPRGVFLENLGNTDFIKLELKSATEVSFSFDVGNGPVEIVVRSPSPLNDDQWHRVTAERNVKQASLQVDRLPQQIRKAPTEGHTRLELYSQLFVGGAGGQQGFLGCIRSLRMNGVTLDLEERAKVTSGFKSGCSGHCTSYGANCENGGKCIEKYHGYSCDCSNTAYDGTFCNKDVGAFFEEGMWLRYNFQAPAVTARDTGSRAENSADQQQHLAPDLAQEQIHFSFSTTKAPCILLYVSSLTTDFLAVLVKPTGNLQIRYNLGGTREPFNIDVDHRNMANGQPHSVNITRHERTIILKLDHYPAVGYHLPSSSDTLFNSPKSLFLGKVIETGKIDQEIHKYNTPGFTGCLSRVQFNHIAPLKAALRQTNASAHVHIQGELVESNCGASPLTLSPMSSATDPWHLDHLDSASADFPYNPGQGQAIRNGVNRNSAIIGGVIAVVIFTILCTLVFLIRYMFRHKGTYHTNEAKGAESAESADAAIMNNDPNFTETIDESKKEWLI
# modifications: here or on the partner: phosphotyrosine at 458
# Molecular target: phosphoY458 Kv1.2 (mouse) (UniProt P63141)
# Assay: affinity purification with mass spectrometry
# Settings: not given
row,binding,Molecule
1,no binding,B1

# Molecular target: T1, phosphoY458 Kv1.2 (mouse), P63141
# Assay: affinity purification with mass spectrometry
# Settings: remark: other sources report otherwise
row,binding,Molecule
1,no binding,B2

# Molecular target: phosphoY458 Kv1.2 (mouse) (UniProt P63141)
# Assay: affinity purification with mass spectrometry
# Settings: not given
# Remark: another data set of the same source
row,binding,Molecule
1,no binding,14-3-3 ε (from UniProt P62259 1-255)
2,binds,actin related protein 1a (from UniProt P61164 1-376)
3,no binding,annexin A2 (from UniProt P07356 1-339)
4,binds,tau (from UniProt P10637 1-733)
5,binds,MAP6 (from UniProt Q7TSJ2 1-906)
6,binds,PDIA3 (from UniProt P27773 25-505)
7,binds,copine 7 (from UniProt Q0VE82 1-557)
8,binds,MAP4 (from UniProt P27546 1-1125)
9,binds,cyclin-dependent-like kinase 5 (from UniProt P49615 1-292) (enzyme)
10,no binding,DLG1 (from UniProt Q811D0 1-905)
11,binds,ATP6V1H subunit (from UniProt Q8BVE3 1-483)
12,no binding,SCRIB (from UniProt Q80U72 1-1665)
13,no binding,copine 6 (from UniProt Q9Z140 1-557)
14,binds,MAP1a (from UniProt Q9QYR6 1-2776)
15,binds,Kv1.1 (from UniProt P16388 1-495)
16,binds,casein kinase II subunit beta (from UniProt P67871 1-215)
17,binds,serine/threonine-protein phosphatase 2B catalytic subunit alpha (from UniProt P63328 1-521) (enzyme)
18,binds,MAP1b (from UniProt P14873 1-2464)
19,binds,MAP1 light chain 3a (from UniProt Q91VR7 1-121)
20,no binding,septin 3 (from UniProt Q9Z1S5 1-350)
21,binds,valosin-containing protein (from UniProt Q01853 1-806)
22,binds,ubiquitin activation E1 enzyme UBA1 (from UniProt Q02053 1-1058)
23,binds,mitogen-activated protein kinase 3 (from UniProt Q63844 1-380) (enzyme)
24,binds,Cyfip2 (from UniProt Q5SQX6 1-1253)

# No constants are given. Whether binding was seen depends on the method and setting. In cells and extracts the contact can be indirect. These calls come from enrichment with a bait or labelling near it, and not all partners need be listed. A no says only that the protein was not detected with the bait. For some assays here: Sequences can lack the tags named with a protein.
